Experimental data taken from PMC6367345 (Scientific Reports, 2019).
These are yes or no findings as the source states them, for the method shown.

Chains of the proteins cited; added tags and fusions are not shown. Residues count along the entry.
UniProt P05121, residues 24-402: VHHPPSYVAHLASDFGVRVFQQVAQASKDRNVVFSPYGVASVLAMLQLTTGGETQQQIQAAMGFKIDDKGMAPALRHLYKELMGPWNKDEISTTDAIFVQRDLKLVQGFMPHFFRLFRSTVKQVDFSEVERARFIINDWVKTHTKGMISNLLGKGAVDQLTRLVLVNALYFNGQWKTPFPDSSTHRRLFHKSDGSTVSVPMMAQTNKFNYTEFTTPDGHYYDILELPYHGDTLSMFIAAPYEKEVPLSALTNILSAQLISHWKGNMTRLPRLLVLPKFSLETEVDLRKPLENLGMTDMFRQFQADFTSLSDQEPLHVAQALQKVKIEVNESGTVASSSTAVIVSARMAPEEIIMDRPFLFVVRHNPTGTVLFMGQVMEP

Target: latent human PAI-1 (human) (UniProt P05121)
Assay: SEC; excess of MEDI-579 incubated with the latent PAI-1 material and run on a size exclusion column; fractions analysed by SDS gel densitometry; both purified

binding: no binding
Substance: latent human PAI-1 (from UniProt P05121 24-402) (other; other documents disagree on this pair)
